Results reported in the supplement of paper PMC12067093, “Discovery and optimisation of a covalent ligand for TRIM25 and its application to targeted protein ubiquitination” (Chemical Science, 2025).
Some of the results follow.

Protein sequences, listed by entry. Tags and fused reporters are not part of them. Lines headed by an entry give the natural chain unless they say otherwise; changes in a name come on top.
UniProt Q9HAD4: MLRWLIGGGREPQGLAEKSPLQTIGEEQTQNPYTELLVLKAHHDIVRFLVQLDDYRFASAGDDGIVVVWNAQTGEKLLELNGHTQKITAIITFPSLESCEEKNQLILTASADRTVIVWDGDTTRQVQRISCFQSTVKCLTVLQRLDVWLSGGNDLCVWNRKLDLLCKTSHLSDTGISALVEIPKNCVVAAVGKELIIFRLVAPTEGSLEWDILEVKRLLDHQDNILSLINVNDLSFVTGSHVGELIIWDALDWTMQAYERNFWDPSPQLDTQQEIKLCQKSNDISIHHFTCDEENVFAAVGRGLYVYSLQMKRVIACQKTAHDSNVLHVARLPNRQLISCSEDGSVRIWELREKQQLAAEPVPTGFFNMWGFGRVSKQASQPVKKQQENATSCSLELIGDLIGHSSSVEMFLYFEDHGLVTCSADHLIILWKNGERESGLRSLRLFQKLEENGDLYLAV
UniProt O43379: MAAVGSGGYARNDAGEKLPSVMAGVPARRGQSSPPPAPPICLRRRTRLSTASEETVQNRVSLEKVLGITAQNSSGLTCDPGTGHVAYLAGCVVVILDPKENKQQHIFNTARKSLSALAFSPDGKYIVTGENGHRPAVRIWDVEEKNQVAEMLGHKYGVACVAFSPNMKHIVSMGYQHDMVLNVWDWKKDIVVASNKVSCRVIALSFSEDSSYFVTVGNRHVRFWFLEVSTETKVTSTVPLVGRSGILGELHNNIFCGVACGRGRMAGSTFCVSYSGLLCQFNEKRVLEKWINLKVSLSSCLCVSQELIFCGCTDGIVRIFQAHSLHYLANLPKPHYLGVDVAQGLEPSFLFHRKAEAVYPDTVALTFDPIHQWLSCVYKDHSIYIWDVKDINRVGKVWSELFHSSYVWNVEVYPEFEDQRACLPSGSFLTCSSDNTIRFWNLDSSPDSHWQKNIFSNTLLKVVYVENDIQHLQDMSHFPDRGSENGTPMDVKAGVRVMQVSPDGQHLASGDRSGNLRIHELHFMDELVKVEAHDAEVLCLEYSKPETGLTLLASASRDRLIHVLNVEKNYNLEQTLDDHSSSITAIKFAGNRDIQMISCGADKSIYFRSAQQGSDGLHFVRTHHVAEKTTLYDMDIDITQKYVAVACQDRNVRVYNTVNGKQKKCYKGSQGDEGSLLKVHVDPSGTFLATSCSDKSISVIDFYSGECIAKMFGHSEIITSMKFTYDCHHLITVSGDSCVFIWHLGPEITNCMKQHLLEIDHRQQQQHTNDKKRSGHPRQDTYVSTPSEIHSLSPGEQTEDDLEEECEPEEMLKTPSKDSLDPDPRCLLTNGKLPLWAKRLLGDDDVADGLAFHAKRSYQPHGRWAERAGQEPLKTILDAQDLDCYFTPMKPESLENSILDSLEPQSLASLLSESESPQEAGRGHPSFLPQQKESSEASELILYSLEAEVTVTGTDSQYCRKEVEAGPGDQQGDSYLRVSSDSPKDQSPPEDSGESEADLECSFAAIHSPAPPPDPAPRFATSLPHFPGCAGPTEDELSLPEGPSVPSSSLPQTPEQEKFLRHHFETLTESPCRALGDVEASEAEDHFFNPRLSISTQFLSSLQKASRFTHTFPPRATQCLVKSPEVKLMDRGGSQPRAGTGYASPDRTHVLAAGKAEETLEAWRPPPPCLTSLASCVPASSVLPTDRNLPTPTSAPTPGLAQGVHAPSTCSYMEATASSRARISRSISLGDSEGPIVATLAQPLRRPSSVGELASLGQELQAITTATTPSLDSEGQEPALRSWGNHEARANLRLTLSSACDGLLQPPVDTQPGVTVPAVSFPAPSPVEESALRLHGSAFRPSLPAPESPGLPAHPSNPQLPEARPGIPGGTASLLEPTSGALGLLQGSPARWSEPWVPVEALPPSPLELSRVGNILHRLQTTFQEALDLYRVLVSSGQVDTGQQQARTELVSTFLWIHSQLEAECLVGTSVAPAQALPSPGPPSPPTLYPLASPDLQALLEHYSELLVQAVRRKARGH
UniProt Q9UNX4: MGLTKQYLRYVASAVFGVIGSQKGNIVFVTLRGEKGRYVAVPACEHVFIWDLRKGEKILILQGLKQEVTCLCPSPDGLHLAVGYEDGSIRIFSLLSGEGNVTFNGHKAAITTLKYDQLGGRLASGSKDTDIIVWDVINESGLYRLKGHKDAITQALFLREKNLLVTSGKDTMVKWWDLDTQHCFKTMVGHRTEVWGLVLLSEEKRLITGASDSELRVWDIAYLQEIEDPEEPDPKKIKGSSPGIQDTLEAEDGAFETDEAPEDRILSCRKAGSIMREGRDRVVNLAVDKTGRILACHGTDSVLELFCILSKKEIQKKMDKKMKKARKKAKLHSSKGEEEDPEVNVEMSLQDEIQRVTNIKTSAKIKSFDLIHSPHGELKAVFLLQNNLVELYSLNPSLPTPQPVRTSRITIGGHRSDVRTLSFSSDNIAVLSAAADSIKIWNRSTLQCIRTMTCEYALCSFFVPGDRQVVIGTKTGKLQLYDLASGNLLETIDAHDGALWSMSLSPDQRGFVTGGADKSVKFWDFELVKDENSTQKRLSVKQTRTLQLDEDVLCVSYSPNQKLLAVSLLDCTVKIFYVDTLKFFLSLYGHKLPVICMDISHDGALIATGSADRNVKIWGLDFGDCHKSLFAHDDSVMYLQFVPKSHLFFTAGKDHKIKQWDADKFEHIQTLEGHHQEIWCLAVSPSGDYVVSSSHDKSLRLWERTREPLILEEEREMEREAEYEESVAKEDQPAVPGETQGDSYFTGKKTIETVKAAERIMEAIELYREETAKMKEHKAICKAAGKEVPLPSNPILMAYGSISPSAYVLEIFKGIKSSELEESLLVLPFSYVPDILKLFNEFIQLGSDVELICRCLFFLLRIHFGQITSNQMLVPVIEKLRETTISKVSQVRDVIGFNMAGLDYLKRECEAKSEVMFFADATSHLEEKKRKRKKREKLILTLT
UniProt Q6RFH5: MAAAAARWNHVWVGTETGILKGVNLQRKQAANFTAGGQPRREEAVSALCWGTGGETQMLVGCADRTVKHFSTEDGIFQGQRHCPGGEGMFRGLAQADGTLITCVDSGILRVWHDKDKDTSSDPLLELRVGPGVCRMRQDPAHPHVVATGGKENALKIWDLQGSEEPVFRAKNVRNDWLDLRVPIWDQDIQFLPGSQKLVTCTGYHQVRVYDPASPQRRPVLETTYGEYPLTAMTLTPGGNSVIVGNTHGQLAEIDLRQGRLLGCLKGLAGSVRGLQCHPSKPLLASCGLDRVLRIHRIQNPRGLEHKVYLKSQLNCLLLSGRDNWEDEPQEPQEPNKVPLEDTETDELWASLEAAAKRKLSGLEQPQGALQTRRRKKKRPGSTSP
UniProt A4D1P6: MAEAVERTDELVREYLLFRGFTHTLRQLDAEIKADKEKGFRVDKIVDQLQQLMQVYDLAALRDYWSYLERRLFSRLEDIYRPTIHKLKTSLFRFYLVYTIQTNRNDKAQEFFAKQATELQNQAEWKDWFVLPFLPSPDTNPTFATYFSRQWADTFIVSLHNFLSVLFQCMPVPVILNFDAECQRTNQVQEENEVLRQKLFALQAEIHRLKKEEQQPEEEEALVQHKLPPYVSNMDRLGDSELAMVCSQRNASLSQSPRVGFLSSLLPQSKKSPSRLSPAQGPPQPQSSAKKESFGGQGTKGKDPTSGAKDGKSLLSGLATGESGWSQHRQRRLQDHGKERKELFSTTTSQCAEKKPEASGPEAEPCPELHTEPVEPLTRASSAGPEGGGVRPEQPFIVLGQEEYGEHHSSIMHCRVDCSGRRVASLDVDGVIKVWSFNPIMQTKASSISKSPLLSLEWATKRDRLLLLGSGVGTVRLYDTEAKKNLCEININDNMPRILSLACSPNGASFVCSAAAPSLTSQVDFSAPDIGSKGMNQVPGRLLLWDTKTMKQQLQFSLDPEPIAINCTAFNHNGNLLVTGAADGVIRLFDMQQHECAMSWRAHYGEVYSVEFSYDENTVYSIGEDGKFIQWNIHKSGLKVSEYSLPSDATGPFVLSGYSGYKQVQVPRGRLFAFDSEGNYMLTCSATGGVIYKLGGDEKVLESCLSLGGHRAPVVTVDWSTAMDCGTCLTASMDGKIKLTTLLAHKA
UniProt O94967: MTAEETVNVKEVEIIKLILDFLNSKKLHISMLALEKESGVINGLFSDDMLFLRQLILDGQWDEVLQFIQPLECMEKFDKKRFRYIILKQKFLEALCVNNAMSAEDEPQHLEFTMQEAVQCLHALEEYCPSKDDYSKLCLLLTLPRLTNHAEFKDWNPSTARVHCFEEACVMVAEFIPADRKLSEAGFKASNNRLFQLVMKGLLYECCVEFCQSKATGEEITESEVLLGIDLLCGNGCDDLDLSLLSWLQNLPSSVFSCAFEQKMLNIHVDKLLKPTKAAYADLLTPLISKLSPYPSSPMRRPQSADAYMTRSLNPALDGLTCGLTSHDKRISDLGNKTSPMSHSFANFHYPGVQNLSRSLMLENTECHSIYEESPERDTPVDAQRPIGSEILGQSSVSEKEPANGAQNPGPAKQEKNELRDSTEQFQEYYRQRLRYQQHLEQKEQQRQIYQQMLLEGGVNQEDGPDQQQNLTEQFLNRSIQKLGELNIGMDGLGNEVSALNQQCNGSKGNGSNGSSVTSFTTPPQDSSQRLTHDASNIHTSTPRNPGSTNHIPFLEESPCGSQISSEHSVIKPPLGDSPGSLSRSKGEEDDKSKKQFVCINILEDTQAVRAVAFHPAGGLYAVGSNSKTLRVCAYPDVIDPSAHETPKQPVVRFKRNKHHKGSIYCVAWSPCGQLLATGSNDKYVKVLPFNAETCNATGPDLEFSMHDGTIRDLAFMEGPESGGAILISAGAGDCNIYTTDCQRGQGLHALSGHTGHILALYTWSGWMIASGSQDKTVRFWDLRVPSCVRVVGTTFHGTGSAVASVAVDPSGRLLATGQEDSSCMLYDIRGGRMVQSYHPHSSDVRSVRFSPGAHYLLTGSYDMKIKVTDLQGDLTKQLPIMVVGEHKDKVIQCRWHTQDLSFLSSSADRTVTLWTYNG
UniProt Q9H967: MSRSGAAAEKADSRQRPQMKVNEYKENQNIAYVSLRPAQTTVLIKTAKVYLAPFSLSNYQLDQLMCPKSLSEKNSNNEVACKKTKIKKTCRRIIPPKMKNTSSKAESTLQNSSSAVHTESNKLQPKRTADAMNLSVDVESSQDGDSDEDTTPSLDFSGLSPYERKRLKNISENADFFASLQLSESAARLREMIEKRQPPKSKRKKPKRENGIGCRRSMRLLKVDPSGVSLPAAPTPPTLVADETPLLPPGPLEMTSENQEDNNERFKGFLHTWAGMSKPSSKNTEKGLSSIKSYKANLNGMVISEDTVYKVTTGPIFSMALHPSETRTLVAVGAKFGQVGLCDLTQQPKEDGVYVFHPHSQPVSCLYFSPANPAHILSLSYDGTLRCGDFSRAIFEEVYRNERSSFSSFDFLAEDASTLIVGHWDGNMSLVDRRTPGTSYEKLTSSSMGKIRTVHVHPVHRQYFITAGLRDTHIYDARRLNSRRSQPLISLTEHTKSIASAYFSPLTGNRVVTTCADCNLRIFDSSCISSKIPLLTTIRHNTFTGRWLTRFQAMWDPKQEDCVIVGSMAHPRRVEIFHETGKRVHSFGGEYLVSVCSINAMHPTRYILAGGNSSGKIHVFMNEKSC
UniProt Q8NI36: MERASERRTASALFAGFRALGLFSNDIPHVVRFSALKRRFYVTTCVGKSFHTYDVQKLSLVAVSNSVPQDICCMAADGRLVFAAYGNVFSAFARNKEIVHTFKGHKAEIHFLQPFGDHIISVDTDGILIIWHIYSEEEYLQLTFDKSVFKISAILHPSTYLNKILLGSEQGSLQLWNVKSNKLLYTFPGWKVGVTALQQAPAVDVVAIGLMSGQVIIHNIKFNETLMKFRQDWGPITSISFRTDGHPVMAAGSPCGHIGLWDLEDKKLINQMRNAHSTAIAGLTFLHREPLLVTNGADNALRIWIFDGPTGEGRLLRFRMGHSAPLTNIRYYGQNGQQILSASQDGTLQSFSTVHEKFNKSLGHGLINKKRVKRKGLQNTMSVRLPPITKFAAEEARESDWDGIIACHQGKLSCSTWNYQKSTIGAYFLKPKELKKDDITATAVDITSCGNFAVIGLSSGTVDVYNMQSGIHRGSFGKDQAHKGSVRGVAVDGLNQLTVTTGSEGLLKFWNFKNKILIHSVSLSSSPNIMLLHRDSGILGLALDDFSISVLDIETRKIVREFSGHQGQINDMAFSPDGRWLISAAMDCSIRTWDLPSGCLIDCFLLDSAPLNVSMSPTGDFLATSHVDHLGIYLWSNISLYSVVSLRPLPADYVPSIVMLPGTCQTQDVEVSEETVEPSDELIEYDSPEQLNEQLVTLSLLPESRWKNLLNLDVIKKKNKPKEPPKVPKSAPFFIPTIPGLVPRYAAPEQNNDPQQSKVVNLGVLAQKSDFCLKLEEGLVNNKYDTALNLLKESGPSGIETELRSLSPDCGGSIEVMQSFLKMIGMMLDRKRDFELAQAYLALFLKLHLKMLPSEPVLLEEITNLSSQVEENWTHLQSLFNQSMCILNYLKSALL

Compound: CC1Cc2ccccc2N1C(=O)C1CCCN(C1)C(=O)CCl (mixture of isomers) [TRIM25 ligand 11 (diastereomer mixture)]
Experiment: probe-labelled cysteine peptide fold change vs DMSO (competition) (log2 fold change); higher = less target engagement (more negative = stronger competition)
Conditions: THP-1, incubation time: 4 h
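Further: competitive chemoproteomic profiling in live THP-1 cells with an iodoacetamide desthiobiotin (IA-DTB) probe, comparing probe-labelled peptide intensities in compound-treated cells against DMSO-treated controls.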

Target: WDFY4_Q6ZS81_835_QWPDLEERMDEGDAAIMHPGVVCIMVR (UniProt Q6ZS81)
- probe-labelled cysteine peptide fold change (10 µM): -0.279
- probe-labelled cysteine peptide fold change (50 µM): -0.333

Target: WDR46_O15213_271_WLHIYDNQGIELHCIR (UniProt O15213)
- probe-labelled cysteine peptide fold change (10 µM): 0.114
- probe-labelled cysteine peptide fold change (50 µM): 0.223

Target: WDR77_Q9BQA1_53_CWAGSLWLFK (UniProt Q9BQA1)
- probe-labelled cysteine peptide fold change (10 µM): 0.0175
- probe-labelled cysteine peptide fold change (50 µM): 0.013

Target: WARS_P23381_225_DIIACGFDINK (UniProt P23381)
- probe-labelled cysteine peptide fold change (10 µM): 0.13
- probe-labelled cysteine peptide fold change (50 µM): 0.231

Target: WDR59_Q6PJI9_654_VIIQDIACLLPVHK (UniProt Q6PJI9)
- probe-labelled cysteine peptide fold change (10 µM): 0.0591
- probe-labelled cysteine peptide fold change (50 µM): -0.0345

Target: WDR53_Q7Z5U6_99_DSLDHFHVNEEEINCLSLNQTENLLASADDSGAIK (UniProt Q7Z5U6)
- probe-labelled cysteine peptide fold change (10 µM): 0.0638
- probe-labelled cysteine peptide fold change (50 µM): -0.245

Target: WDR41_Q9HAD4_186_NCVVAAVGK (UniProt Q9HAD4)
- probe-labelled cysteine peptide fold change (10 µM): 0.149
- probe-labelled cysteine peptide fold change (50 µM): 0.0422

Target: WDR62_O43379_539_VEAHDAEVLCLEYSKPETGLTLLASASR (UniProt O43379)
- probe-labelled cysteine peptide fold change (10 µM): 0.0174
- probe-labelled cysteine peptide fold change (50 µM): -0.205

Target: WIZ_O95785_1048_CEFCGEFFENR (UniProt O95785)
- probe-labelled cysteine peptide fold change (10 µM): 0.0722
- probe-labelled cysteine peptide fold change (50 µM): 0.417

Target: WNK1_Q9H4A3_1135_VVECQLETHNRK (UniProt Q9H4A3)
- probe-labelled cysteine peptide fold change (10 µM): 0.137
- probe-labelled cysteine peptide fold change (50 µM): 0.179

Target: WDR62_O43379_599_DIQMISCGADK (UniProt O43379)
- probe-labelled cysteine peptide fold change (10 µM): -0.297
- probe-labelled cysteine peptide fold change (50 µM): 0.0627

Target: WT1_P19544_385_HTGVKPFQCK (UniProt P19544)
- probe-labelled cysteine peptide fold change (10 µM): -0.144
- probe-labelled cysteine peptide fold change (50 µM): -0.103

Target: WASHC3_Q9Y3C0_48_FSTVCEEK (UniProt Q9Y3C0)
- probe-labelled cysteine peptide fold change (10 µM): 0.0666
- probe-labelled cysteine peptide fold change (50 µM): 0.0936

Target: WDFY4_Q6ZS81_2226_TEDFVSCIENYR (UniProt Q6ZS81)
- probe-labelled cysteine peptide fold change (10 µM): -0.0499
- probe-labelled cysteine peptide fold change (50 µM): -0.0899

Target: WDR3_Q9UNX4_296+307_ILACHGTDSVLELFCILSK (UniProt Q9UNX4)
- probe-labelled cysteine peptide fold change (10 µM): -0.0433
- probe-labelled cysteine peptide fold change (50 µM): -0.38

Target: WDR74_Q6RFH5_316_SQLNCLLLSGR (UniProt Q6RFH5)
- probe-labelled cysteine peptide fold change (10 µM): -0.0123
- probe-labelled cysteine peptide fold change (50 µM): -0.214

Target: WDR13_Q9H1Z4_423_QGACVVTGSEDMCVHFFDVER (UniProt Q9H1Z4)
- probe-labelled cysteine peptide fold change (10 µM): 0.273
- probe-labelled cysteine peptide fold change (50 µM): 0.1

Target: WDR92_Q96MX6_70_CGTFGATSLQQR (UniProt Q96MX6)
- probe-labelled cysteine peptide fold change (10 µM): -0.116
- probe-labelled cysteine peptide fold change (50 µM): -0.0661

Target: WDR91_A4D1P6_684_LFAFDSEGNYMLTCSATGGVIYK (UniProt A4D1P6)
- probe-labelled cysteine peptide fold change (10 µM): 0.0446
- probe-labelled cysteine peptide fold change (50 µM): 0.0897

Target: WDR47_O94967_322_SLNPALDGLTCGLTSHDK (UniProt O94967)
- probe-labelled cysteine peptide fold change (10 µM): 0.104
- probe-labelled cysteine peptide fold change (50 µM): -0.116

Target: WDR76_Q9H967_81_NSNNEVACK (UniProt Q9H967)
- probe-labelled cysteine peptide fold change (10 µM): -0.0543
- probe-labelled cysteine peptide fold change (50 µM): -0.257

Target: WDFY4_Q6ZS81_264_AQNLSIIQYLQATDCVR (UniProt Q6ZS81)
- probe-labelled cysteine peptide fold change (10 µM): 0.133
- probe-labelled cysteine peptide fold change (50 µM): -0.00204

Target: WDR41_Q9HAD4_340_QLISCSEDGSVR (UniProt Q9HAD4)
- probe-labelled cysteine peptide fold change (10 µM): -0.0419
- probe-labelled cysteine peptide fold change (50 µM): 0.061

Target: WDR3_Q9UNX4_625_IWGLDFGDCHK (UniProt Q9UNX4)
- probe-labelled cysteine peptide fold change (10 µM): 0.0377
- probe-labelled cysteine peptide fold change (50 µM): 0.05

Target: WDR11_Q9BZH6_1000_KCTDQLLLLGQTDR (UniProt Q9BZH6)
- probe-labelled cysteine peptide fold change (10 µM): -0.0903
- probe-labelled cysteine peptide fold change (50 µM): 0.0619

Target: WDR7_Q9Y4E6_69_ALLFGHTASITCLSK (UniProt Q9Y4E6)
- probe-labelled cysteine peptide fold change (10 µM): -0.0603
- probe-labelled cysteine peptide fold change (50 µM): 0.144

Target: WDFY1_Q8IWB7_204_GHEGSVACLWWDPIQR (UniProt Q8IWB7)
- probe-labelled cysteine peptide fold change (10 µM): -0.0298
- probe-labelled cysteine peptide fold change (50 µM): 0.0831

Target: WIPI2_Q9Y4P8-2_401_AYTDDLGAVGGACLEDEASALRLDEDSEHPPMILR (UniProt Q9Y4P8)
- probe-labelled cysteine peptide fold change (10 µM): -0.437
- probe-labelled cysteine peptide fold change (50 µM): -0.237

Target: WDR74_Q6RFH5_83_HCPGGEGMFR (UniProt Q6RFH5)
- probe-labelled cysteine peptide fold change (10 µM): 0.0657
- probe-labelled cysteine peptide fold change (50 µM): -0.0427

Target: WDR47_O94967_695_VLPFNAETCNATGPDLEFSMHDGTIR (UniProt O94967)
- probe-labelled cysteine peptide fold change (10 µM): 0.0901
- probe-labelled cysteine peptide fold change (50 µM): 0.123

Target: WDFY4_Q6ZS81_2226_TEDFVSCIENYRR (UniProt Q6ZS81)
- probe-labelled cysteine peptide fold change (10 µM): 0.00908
- probe-labelled cysteine peptide fold change (50 µM): -0.0125

Target: WWP2_O00308_88_VWSCHTLR (UniProt O00308)
- probe-labelled cysteine peptide fold change (10 µM): 0.164
- probe-labelled cysteine peptide fold change (50 µM): 0.2

Target: WRAP53_Q9BUR4_512_HVHLECR (UniProt Q9BUR4)
- probe-labelled cysteine peptide fold change (10 µM): 0.0398
- probe-labelled cysteine peptide fold change (50 µM): 0.11

Target: WDR1_O75083_194_FVNCVR (UniProt O75083)
- probe-labelled cysteine peptide fold change (10 µM): 0.18
- probe-labelled cysteine peptide fold change (50 µM): -0.251

Target: WDR36_Q8NI36_463_ESDWDGIIACHQGK (UniProt Q8NI36)
- probe-labelled cysteine peptide fold change (10 µM): 0.0291
- probe-labelled cysteine peptide fold change (50 µM): -0.0647

Target: WDR43_Q15061_140_VNCIQWHQDSGCLYSCSDDK (UniProt Q15061)
- probe-labelled cysteine peptide fold change (10 µM): 0.0884
- probe-labelled cysteine peptide fold change (50 µM): 0.0864

Target: WDR61_Q9GZS3_303_IVSVGDDQEIHIYDCPI (UniProt Q9GZS3)
- probe-labelled cysteine peptide fold change (10 µM): -0.0157
- probe-labelled cysteine peptide fold change (50 µM): -0.221

Target: WDR36_Q8NI36_311_TDGHPVMAAGSPCGHIGLWDLEDK (UniProt Q8NI36)
- probe-labelled cysteine peptide fold change (10 µM): 0.0999
- probe-labelled cysteine peptide fold change (50 µM): -0.103

Target: WDR60_Q8WVS4_1047_WAAPEVDECNR (UniProt Q8WVS4)
- probe-labelled cysteine peptide fold change (10 µM): -0.147
- probe-labelled cysteine peptide fold change (50 µM): -0.141
